Earlier results, collected in US6583280B1, “Polyamine analogues having antiproliferative activity” (priority 2000, dated 2003).
Some results were stated once for a whole list of compounds, not compound by compound.

Tested on: NMDA receptor

## CCNCC[C@@H](O)CNCCCCNC[C@H](O)CCNCC [(HO)2DEHPM]
  antagonist concentration at NMDA receptor: ≥ 5 µM

## CCNCCCCNCCCCNCCCCNCC [DEHSPM]
  antagonist concentration at NMDA receptor: ≥ 5 µM
